Laboratory results taken from article PMC10912199.
No constants are given. Whether binding was seen depends on the method and setting. In cells and extracts the contact can be indirect.

The chains behind the UniProt entries cited, without tags or fusion partners.
UniProt Q13547: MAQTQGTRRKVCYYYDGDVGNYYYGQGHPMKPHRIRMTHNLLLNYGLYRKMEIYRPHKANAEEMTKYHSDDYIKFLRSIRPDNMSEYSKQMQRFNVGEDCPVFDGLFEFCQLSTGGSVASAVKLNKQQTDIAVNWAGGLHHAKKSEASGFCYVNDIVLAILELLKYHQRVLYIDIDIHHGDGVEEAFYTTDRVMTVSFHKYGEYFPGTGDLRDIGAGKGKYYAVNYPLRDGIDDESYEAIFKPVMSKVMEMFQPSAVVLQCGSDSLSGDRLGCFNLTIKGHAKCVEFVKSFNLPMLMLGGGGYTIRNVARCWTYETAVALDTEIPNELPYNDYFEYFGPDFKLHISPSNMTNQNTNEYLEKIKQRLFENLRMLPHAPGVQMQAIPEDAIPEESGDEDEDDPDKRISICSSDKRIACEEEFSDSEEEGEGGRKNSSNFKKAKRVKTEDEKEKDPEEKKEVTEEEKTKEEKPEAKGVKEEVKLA

Molecular target: histone deacetylase 1 (HDAC1) (human (endogenous in CRC cells)) (UniProt Q13547)
Assay: co-IP; Pierce immunoprecipitation kit; HDAC1 primary antibody (10 µg) cross-linked to AminoLink coupling resin; proteins extracted from CRC cells incubated with the resin for 2 h at room temperature; eluate detected by Western Blot

binding: no binding
B1: Potassium Channel Tetramerization Domain Containing 15 (KCTD15) (protein, UniProt Q96SI1 1-283)
chain: MPHRKERPSGSSLHTHGSTGTAEGGNMSRLSLTRSPVSPLAAQGIPLPAQLTKSNAPVHIDVGGHMYTSSLATLTKYPDSRISRLFNGTEPIVLDSLKQHYFIDRDGEIFRYVLSFLRTSKLLLPDDFKDFSLLYEEARYYQLQPMVRELERWQQEQEQRRRSRACDCLVVRVTPDLGERIALSGEKALIEEVFPETGDVMCNSVNAGWNQDPTHVIRFPLNGYCRLNSVQVLERLFQRGFSVAASCGGGVDSSQFSEYVLCREERRPQPTPTAVRIKQEPLD
